# Laboratory results as given in patent US10807958B2, “1,4-bis(3-aminopropyl)piperazine derivative and its use” (INSERM (Institut National de la Sante et de la Recherche …, priority 2015, dated 2020).
# System: Wild-type C57BL/6J animals
# Assay: Morris water maze spatial memory, wild-type animals
# Format: in vivo, mouse
# Settings: 0.5 mg/kg
# From the text: Wild-type C57BL/6J animals of 3 months were purchased at Charles Rivers Laboratories (France) and were allow to acclimate in the animal facility for at least one week before any treatment. Thy-Tau22 transgenic colonies (C57BL/6J genetic background) were obtained by crossing heterozygous Thy-Tau22 males with C57BL/6 WT females. […] In this model, a progressive development of NFT is observed in the hippocampus and amygdala, which parallels behavioral impairments (Schindowski et al., 2006). Furthermorever, in the hippocampus, hyper- and abnormally phosphorylated Tau species accumulate within the somato-dendritic area (Schindowski et al., 2006).
# For animal treatment, animals were randomly distributed and the compound of Formula I was given in the drinking water at final concentration of 0.5 or 1 mg/kg. Drinking bottles were changed once per week, volume consumption was measured along the treatment period. Food consumption and body weight were assessed. […]
# Before any behavioral test, exploratory and locomotion of treated and untreated animal were evaluated in a Open field (OF) 25 cm×25 cm arena. […] The anxiety, which could interfere with memory test, was evaluated by the elevated plus maze (EPM). […]
# Spatial learning and memory abilities were assessed in a standard hidden-platform acquisition and retention version of the Morris water maze task (Van der Jeugd et al., 2013). […]
structure (smiles),measurement,setting,value
"CC(C)CN(CCCN1CCN(CCCNc2c3c(nc4ccccc24)CCCC3)CC1)CC(C)C [compound of Formula I, N-[3-(4-{3-[Bis(2-methylpropyl)amino]propyl}piperazin-1-yl)propyl]-1,2,3,4-tetrahydroacridin-9-amine]",cognitive performance of wild-type animals (preference for target quadrant),FIG. 4B,did not impact
same,"probe test, effect on spatial memory in wild-type animals",probe test 72 hours after last learning day,no significant effect
